{"source": "PubChem BioAssay AID1159601 | NIAID – 2016", "screen": "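Which toll-like receptor pathway genes are needed for TNF promoter activation by Pam3CSK4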 (primary screen)", "system": "human THP-1 reporter cells differentiated with PMA into macrophage-like cells", "reagents": "single siRNA against human genes", "time to read-out": "ligand added 4 hours before read-out; cells assayed 48 to 72 hours after siRNA transfection", "treatment": "Pam3CSK4 (TLR2 ligand) for 4 hours; dose not given", "measurement": "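Firefly over renilla luciferase ratio from a TNF promoter reporter after 4 h Pam3CSK4, plate scaled by median and MAD, robust z-score versus negative controls, replicate mean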", "reading the numbers": "TNF reporter z-score: higher = stronger TNF promoter reporter activity", "active means": "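The depositor grades each siRNA by the size of its mean z-score in either direction, with steps at 1, 1.5, 2 and 2.5; active calls sit near -1.5 or below, or near 1.5 or above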", "meaning of the calls": "active = clear change (up or down); inactive = little change", "note": "The whole screen tested 756 reagents; shown is an unselected part. In the full data, 143 (19%) were called active. 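Calls include both lowered and raised reporter signal; each row is a single siRNA, not a gene summary; Pam3CSK4 dose not stated.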 Reagents against one gene are numbered here. Not given: the amount of reagent."}
{"target gene": "PTK2B (GeneID 2185)", "reagent no.": 1, "TNF reporter z-score, replicate mean": 0.386, "Call": "inactive"}
{"target gene": "PTK2B (GeneID 2185)", "reagent no.": 2, "TNF reporter z-score, replicate mean": -1.43, "Call": "inactive"}
{"target gene": "PTK2B (GeneID 2185)", "reagent no.": 3, "TNF reporter z-score, replicate mean": 0.701, "Call": "inactive"}
{"target gene": "PTK2B (GeneID 2185)", "reagent no.": 4, "TNF reporter z-score, replicate mean": -1.32, "Call": "inactive"}
{"target gene": "PTK2B (GeneID 2185)", "reagent no.": 5, "TNF reporter z-score, replicate mean": -1.09, "Call": "inactive"}
{"target gene": "PTK2B (GeneID 2185)", "reagent no.": 6, "TNF reporter z-score, replicate mean": -0.418, "Call": "inactive"}
{"target gene": "PIK3CA (GeneID 5290)", "reagent no.": 1, "TNF reporter z-score, replicate mean": -0.0669, "Call": "inactive"}
{"target gene": "PIK3CA (GeneID 5290)", "reagent no.": 2, "TNF reporter z-score, replicate mean": -0.982, "Call": "inactive"}
{"target gene": "PIK3CA (GeneID 5290)", "reagent no.": 3, "TNF reporter z-score, replicate mean": 1.73, "Call": "active"}
{"target gene": "PIK3CA (GeneID 5290)", "reagent no.": 4, "TNF reporter z-score, replicate mean": -0.409, "Call": "inactive"}
{"target gene": "PIK3CA (GeneID 5290)", "reagent no.": 5, "TNF reporter z-score, replicate mean": -1.16, "Call": "inactive"}
{"target gene": "PIK3CA (GeneID 5290)", "reagent no.": 6, "TNF reporter z-score, replicate mean": 1.28, "Call": "inactive"}
{"target gene": "RIPK1 (GeneID 8737)", "reagent no.": 1, "TNF reporter z-score, replicate mean": -1.1, "Call": "inactive"}
{"target gene": "RIPK1 (GeneID 8737)", "reagent no.": 2, "TNF reporter z-score, replicate mean": 0.141, "Call": "inactive"}
{"target gene": "RIPK1 (GeneID 8737)", "reagent no.": 3, "TNF reporter z-score, replicate mean": 1.09, "Call": "inactive"}
{"target gene": "RIPK1 (GeneID 8737)", "reagent no.": 4, "TNF reporter z-score, replicate mean": -0.94, "Call": "inactive"}
{"target gene": "RIPK1 (GeneID 8737)", "reagent no.": 5, "TNF reporter z-score, replicate mean": -1.04, "Call": "inactive"}
{"target gene": "RIPK1 (GeneID 8737)", "reagent no.": 6, "TNF reporter z-score, replicate mean": -0.467, "Call": "inactive"}
{"target gene": "TLR6 (GeneID 10333)", "reagent no.": 1, "TNF reporter z-score, replicate mean": -0.137, "Call": "inactive"}
{"target gene": "TLR6 (GeneID 10333)", "reagent no.": 2, "TNF reporter z-score, replicate mean": 1.41, "Call": "inactive"}
{"target gene": "TLR6 (GeneID 10333)", "reagent no.": 3, "TNF reporter z-score, replicate mean": -1.56, "Call": "active"}
{"target gene": "TLR6 (GeneID 10333)", "reagent no.": 4, "TNF reporter z-score, replicate mean": -0.219, "Call": "inactive"}
{"target gene": "TLR6 (GeneID 10333)", "reagent no.": 5, "TNF reporter z-score, replicate mean": 0.569, "Call": "inactive"}
{"target gene": "TLR6 (GeneID 10333)", "reagent no.": 6, "TNF reporter z-score, replicate mean": -0.555, "Call": "inactive"}
{"target gene": "TAB2 (GeneID 23118)", "reagent no.": 1, "TNF reporter z-score, replicate mean": 0.0323, "Call": "inactive"}
{"target gene": "TAB2 (GeneID 23118)", "reagent no.": 2, "TNF reporter z-score, replicate mean": -1.97, "Call": "active"}
{"target gene": "TAB2 (GeneID 23118)", "reagent no.": 3, "TNF reporter z-score, replicate mean": -2.38, "Call": "active"}
{"target gene": "TAB2 (GeneID 23118)", "reagent no.": 4, "TNF reporter z-score, replicate mean": -2.07, "Call": "active"}
{"target gene": "TAB2 (GeneID 23118)", "reagent no.": 5, "TNF reporter z-score, replicate mean": -5.38, "Call": "active"}
{"target gene": "TAB2 (GeneID 23118)", "reagent no.": 6, "TNF reporter z-score, replicate mean": -2.08, "Call": "active"}
{"target gene": "IL33R (GeneID 9173)", "reagent no.": 1, "TNF reporter z-score, replicate mean": -0.564, "Call": "inactive"}
{"target gene": "IL33R (GeneID 9173)", "reagent no.": 2, "TNF reporter z-score, replicate mean": -1.26, "Call": "inactive"}
{"target gene": "IL33R (GeneID 9173)", "reagent no.": 3, "TNF reporter z-score, replicate mean": -0.321, "Call": "inactive"}
{"target gene": "IL33R (GeneID 9173)", "reagent no.": 4, "TNF reporter z-score, replicate mean": -0.0201, "Call": "inactive"}
{"target gene": "IL33R (GeneID 9173)", "reagent no.": 5, "TNF reporter z-score, replicate mean": -2.7, "Call": "active"}
{"target gene": "IL33R (GeneID 9173)", "reagent no.": 6, "TNF reporter z-score, replicate mean": -0.0956, "Call": "inactive"}
{"target gene": "AKT3 (GeneID 10000)", "reagent no.": 1, "TNF reporter z-score, replicate mean": 0.238, "Call": "inactive"}
{"target gene": "AKT3 (GeneID 10000)", "reagent no.": 2, "TNF reporter z-score, replicate mean": 0.249, "Call": "inactive"}
{"target gene": "AKT3 (GeneID 10000)", "reagent no.": 3, "TNF reporter z-score, replicate mean": 2.34, "Call": "active"}
{"target gene": "AKT3 (GeneID 10000)", "reagent no.": 4, "TNF reporter z-score, replicate mean": -1.47, "Call": "inactive"}
{"target gene": "AKT3 (GeneID 10000)", "reagent no.": 5, "TNF reporter z-score, replicate mean": -0.958, "Call": "inactive"}
{"target gene": "AKT3 (GeneID 10000)", "reagent no.": 6, "TNF reporter z-score, replicate mean": 0.0238, "Call": "inactive"}
{"target gene": "MAP3K1 (GeneID 4214)", "reagent no.": 1, "TNF reporter z-score, replicate mean": -0.417, "Call": "inactive"}
{"target gene": "MAP3K1 (GeneID 4214)", "reagent no.": 2, "TNF reporter z-score, replicate mean": -0.593, "Call": "inactive"}
{"target gene": "MAP3K1 (GeneID 4214)", "reagent no.": 3, "TNF reporter z-score, replicate mean": -0.693, "Call": "inactive"}
{"target gene": "MAP3K1 (GeneID 4214)", "reagent no.": 4, "TNF reporter z-score, replicate mean": -2.92, "Call": "active"}
{"target gene": "MAP3K1 (GeneID 4214)", "reagent no.": 5, "TNF reporter z-score, replicate mean": -0.601, "Call": "inactive"}
{"target gene": "MAP3K1 (GeneID 4214)", "reagent no.": 6, "TNF reporter z-score, replicate mean": -0.936, "Call": "inactive"}

Hits, among the entries above:
{"target gene": "PIK3CA (GeneID 5290)", "reagent no.": 3, "TNF reporter z-score, replicate mean": 1.73, "Call": "active"}
{"target gene": "TLR6 (GeneID 10333)", "reagent no.": 3, "TNF reporter z-score, replicate mean": -1.56, "Call": "active"}
{"target gene": "TAB2 (GeneID 23118)", "reagent no.": 2, "TNF reporter z-score, replicate mean": -1.97, "Call": "active"}
{"target gene": "TAB2 (GeneID 23118)", "reagent no.": 3, "TNF reporter z-score, replicate mean": -2.38, "Call": "active"}
{"target gene": "TAB2 (GeneID 23118)", "reagent no.": 4, "TNF reporter z-score, replicate mean": -2.07, "Call": "active"}
{"target gene": "TAB2 (GeneID 23118)", "reagent no.": 5, "TNF reporter z-score, replicate mean": -5.38, "Call": "active"}
{"target gene": "TAB2 (GeneID 23118)", "reagent no.": 6, "TNF reporter z-score, replicate mean": -2.08, "Call": "active"}
{"target gene": "IL33R (GeneID 9173)", "reagent no.": 5, "TNF reporter z-score, replicate mean": -2.7, "Call": "active"}
{"target gene": "AKT3 (GeneID 10000)", "reagent no.": 3, "TNF reporter z-score, replicate mean": 2.34, "Call": "active"}
{"target gene": "MAP3K1 (GeneID 4214)", "reagent no.": 4, "TNF reporter z-score, replicate mean": -2.92, "Call": "active"}
